# Values joined by “and” are separate entries in the source; they are usually repeats but may differ in a detail not shown here. Equal values may be shown once. Inconclusive results, whose numbers are uncertain, are shown with a selection of clear calls. For part of these data: Potencies of inconclusive entries are doubtful fits and often do not repeat. A structure can be active in one record and inactive in another. Active and inactive are the calls of the source. Rule for the calls: active = hit-call score of the fitted dose curve at least 0.9, where 1 is the maximum; inconclusive = response in the unintended direction; inactive = score below 0.9.
# Sequences of proteins named here, by UniProt entry; tags and fusion partners are left off. A change or cut given only in a name is not applied to a line headed by its entry.
# UniProt P19793: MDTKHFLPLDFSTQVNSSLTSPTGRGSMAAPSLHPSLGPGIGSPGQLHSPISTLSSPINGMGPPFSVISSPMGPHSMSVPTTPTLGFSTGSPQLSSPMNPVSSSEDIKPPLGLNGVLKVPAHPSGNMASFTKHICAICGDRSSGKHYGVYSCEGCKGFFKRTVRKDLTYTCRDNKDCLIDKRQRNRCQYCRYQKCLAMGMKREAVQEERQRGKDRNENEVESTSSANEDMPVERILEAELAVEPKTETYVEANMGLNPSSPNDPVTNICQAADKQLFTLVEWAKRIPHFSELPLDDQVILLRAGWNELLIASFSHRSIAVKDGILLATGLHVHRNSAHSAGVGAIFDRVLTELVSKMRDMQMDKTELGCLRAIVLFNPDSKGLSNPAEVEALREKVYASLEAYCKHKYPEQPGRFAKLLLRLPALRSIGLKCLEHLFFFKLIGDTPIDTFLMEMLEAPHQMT
# UniProt P04637, whole entry, looked up: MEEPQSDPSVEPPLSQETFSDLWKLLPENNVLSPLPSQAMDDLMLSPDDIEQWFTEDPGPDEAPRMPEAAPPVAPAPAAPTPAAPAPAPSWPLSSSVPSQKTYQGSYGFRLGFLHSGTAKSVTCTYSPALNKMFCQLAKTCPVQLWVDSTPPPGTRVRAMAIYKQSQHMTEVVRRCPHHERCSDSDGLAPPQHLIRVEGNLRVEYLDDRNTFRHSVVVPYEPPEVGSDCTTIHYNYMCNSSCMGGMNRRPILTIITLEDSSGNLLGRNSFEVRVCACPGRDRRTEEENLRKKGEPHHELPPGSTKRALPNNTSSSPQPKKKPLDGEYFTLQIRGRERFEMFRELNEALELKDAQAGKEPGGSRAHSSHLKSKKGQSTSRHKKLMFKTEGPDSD
# Legend:
# [1] = target: Retinoic acid receptor RXR-alpha (Homo sapiens) (UniProt P19793); assay: OT_NURR1_NURR1RXRa_1440: Odyssey Thera (OT) 24-hour HEK293T Protein Complementation Assay for Nurr1/retinoid X receptor (RXR) (AID 2283386)
# Method in brief: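 Cell-based binding reporter: HEK293T cells, 24 h exposure, fluorescence-detected fragment complementation, DMSO as baseline.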
# [2] = ATG_XTT_Cytotoxicity: Cytotoxicity Assessment in the Attagene TRANS-FACTORIAL HepG2 Assay (AID 2283584);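 note: XTT signal for cell number as viability in transfected HepG2 cells; cells exposed to compound for 24 h before reading; active means loss of viability signal versus DMSO baseline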
# Method in brief: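 HepG2 cells transiently transfected with GAL4-UAS multiple reporter units, dosed 24 h; cytotoxicity read by XTT as loss of signal versus DMSO baseline.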
# [3] = target: Cellular tumor antigen p53 (Homo sapiens) (UniProt P04637); assay: TOX21_p53_BLA_p3_ratio: Tox21 HCT-116 p53 Agonism Beta-lactamase Assay, Ratio, Phase 3 (AID 2283596)
# Method in brief: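 Cells were seeded at 4000/well, rested 5 h at 37C, then dosed with DMSO compound solutions (217-fold dilution) for 16 h. CCF4-AM substrate was loaded for 2 h at room temperature, and the 460/530 nm emission ratio was fitted for gain of signal versus DMSO.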
# [4] = TOX21_p53_BLA_p4_viability: Viability Assessment in the Tox21 HCT-116 p53 Agonism Beta-lactamase Assay, Phase 4 (AID 2283597);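 note: hits lower the luminescence signal meaning cytotoxicity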
# Method in brief: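 4000 HCT116 cells per well; 5 h attachment; compounds from DMSO, 217-fold dilution; 16 h at 37C. Then CCF4-AM, 2 h RT, followed by CellTiter-Glo, 30 min RT, luminescence. Decrease = cytotoxicity.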
# [5] = target: Cellular tumor antigen p53 (Homo sapiens) (UniProt P04637); assay: TOX21_p53_BLA_p4_ratio: Tox21 HCT-116 p53 Agonism Beta-lactamase Assay, Ratio, Phase 4 (AID 2283601)
# Method in brief: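 Signal is the blue/green (460nm/530nm) ratio of cleaved versus uncleaved CCF4-AM substrate, read after 2 h substrate loading. Cells were HCT116 carrying the p53-responsive beta-lactamase reporter, dosed 16 h at 37C, 5% CO2; CellTiter-Glo measured in parallel.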
# [6] = TOX21_p53_BLA_p2_viability: Viability Assessment in the Tox21 HCT-116 p53 Agonism Beta-lactamase Assay, Phase 2 (AID 2283591);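 note: actives lower the ATP signal meaning cytotoxicity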
# Method in brief: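 Cytotoxicity readout: CellTiter-Glo ATP luminescence, 30 min at room temperature, after the beta-lactamase read. Cells were HCT116 exposed 16 h at 37C to compounds pin-transferred at 217-fold dilution from DMSO stocks.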
# [7] = target: Cellular tumor antigen p53 (Homo sapiens) (UniProt P04637); assay: TOX21_p53_BLA_p5_ratio: Tox21 HCT-116 p53 Agonism Beta-lactamase Assay, Ratio, Phase 5 (AID 2283599)
# Method in brief: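 Beta-lactamase reporter ratio (blue 460 nm over green 530 nm, 405 nm excitation) after 2 h CCF4-AM loading, in HCT-116 cells exposed 16 h at 37 C to compounds pinned at 217-fold dilution. Increases relative to DMSO baseline scored.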
# [8] = TOX21_p53_BLA_p5_viability: Viability Assessment in the Tox21 HCT-116 p53 Agonism Beta-lactamase Assay, Phase 5 (AID 2283600)
# Method in brief: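 Decreased CellTiter-Glo luminescence denotes lost viability. Exposure: 16 h at 37C, 5% CO2, with compounds from DMSO stocks diluted 217-fold in wells of 4000 cells.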
# [9] = TOX21_p53_BLA_p3_viability: Viability Assessment in the Tox21 HCT-116 p53 Agonism Beta-lactamase Assay, Phase 3 (AID 2283593);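 note: cells exposed to compound for 16 h before reading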
# Method in brief: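 Cellular ATP was quantified by CellTiter-Glo luminescence, read after 30 min at room temperature. Beforehand, HCT116 cells (4000/well) received compound 5 h post-seeding, 217-fold diluted from DMSO, then incubated 16 h at 37C.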
# [10] = target: Cellular tumor antigen p53 (Homo sapiens) (UniProt P04637); assay: TOX21_p53_BLA_p2_ratio: Tox21 HCT-116 p53 Agonism Beta-lactamase Assay, Ratio, Phase 2 (AID 2283592)
# Method in brief: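 First, HCT116 reporter cells settle for 5 h at 37C. Next, DMSO compound solutions are pinned in (217-fold dilution) and left 16 h. Finally, CCF4-AM substrate is loaded 2 h at room temperature and the 460/530 nm ratio read.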
# [11] = Tanguay_ZF_120hpf_EYE_legacy: (Legacy) Oregon State University Tanguay Lab 120 Hour Post-fertilization zebrafish Assay for Eye Malformation (AID 2283636);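 note: binary presence or absence of eye malformation scored by brightfield in 120 hpf larvae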
# Method in brief: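 Binary brightfield scoring of eye defects at 120 hpf after static exposure from 6 hpf of single pronase-dechorionated wild-type embryos (28C, 0.64% DMSO). Non-mortality endpoints omitted where embryos died; fit vs DMSO.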
smiles,measurement,setting,value
CCCCCCCCCCCCOCCOS(=O)(=O)O,AC50,[1],inconclusive: 50 µM
same,AC50,[2],active: 154 µM
same,AC50,[3],inconclusive: 46.1 µM
same,AC50,[4],active: 60.4 µM
same,outcome,[5],inactive
Cc1ccc(O)c(-n2nc3ccccc3n2)c1,outcome,[1],inactive
same,AC50,[6],inconclusive: 1.05 µM
same,outcome,[6],inactive
same,AC50,[3],inconclusive: 46.1 µM and inconclusive: 45.8 µM
same,outcome,[4],inactive
same,AC50,[7],inconclusive: 36 µM and inconclusive: 23 µM
same,AC50,[8],inconclusive: 23 µM
same,outcome,[8],inactive
c1ccc2c(c1)Cc1ccccc1-2,outcome,[1],inactive
same,AC50,[2],inconclusive: 0.0197 µM
same,AC50,[6],inconclusive: 0.098 µM
same,AC50,[4],inconclusive: 46.7 µM
same,outcome,[4],inactive
same,AC50,[8],inconclusive: 46.7 µM
same,AC50,[5],inconclusive: 29.4 µM
Cc1ccccc1Cl,AC50,[1],inconclusive: 50 µM
same,AC50,[6],inconclusive: 46.3 µM
same,AC50,[9],inconclusive: 59.5 µM
same,outcome,[9],inactive
same,AC50,[3],inconclusive: 46.1 µM
same,outcome,[3],inactive
same,AC50,[8],inconclusive: 6.19 µM
same,AC50,[5],inconclusive: 46.1 µM
CC[C@H](c1ccc(O)cc1)[C@@H](CC)c1ccc(O)cc1,AC50,[1],inconclusive: 50 µM and inconclusive: 16 µM
same,AC50,[2],active: 144 µM and active: 133 µM and active: 164 µM
same,AC50,[6],active: 61.7 µM
same,AC50,[10],active: 66.6 µM
same,outcome,[9],inactive
same,AC50,[3],active: 14.4 µM
same,AC50,[4],active: 57.8 µM
same,outcome,[4],inactive
same,AC50,[7],active: 67.1 µM
same,AC50,[8],active: 75.7 µM
same,AC50,[5],active: 60.1 µM
same,outcome,[5],inactive
CCCCCCCCCCCCCC[N+](C)(C)C,AC50,[1],inconclusive: 2.71 µM
same,AC50,[2],active: 36.8 µM
same,AC50,[6],active: 49.1 µM and active: 13.3 µM and active: 33.7 µM
same,AC50,[10],active: 43.8 µM and active: 11.3 µM
same,AC50,[9],inconclusive: 46 µM and active: 37.5 µM
same,outcome,[9],inactive
same,AC50,[3],active: 39.8 µM and active: 14.6 µM
same,AC50,[4],active: 52.4 µM and active: 13.2 µM and active: 35.4 µM
same,AC50,[7],active: 31.2 µM and active: 16.1 µM
same,AC50,[8],active: 76.6 µM and active: 45.3 µM
same,outcome,[8],inactive
same,AC50,[5],active: 63.8 µM and active: 26.6 µM and active: 23.1 µM
CCCCCCC=O,outcome,[1],inactive
same,AC50,[6],inconclusive: 46.1 µM
same,outcome,[6],inactive
same,AC50,[3],inconclusive: 82.2 µM
same,outcome,[4],inactive
same,AC50,[7],inconclusive: 46.9 µM
same,AC50,[8],inconclusive: 46.9 µM
same,AC50,[5],inconclusive: 31.7 µM
BrC1CCC(Br)C(Br)CCC(Br)C(Br)CCC1Br (centres undefined),outcome,[1],inactive
same,AC50,[6],active: 18.1 µM and active: 18.2 µM
same,AC50,[10],active: 53.1 µM and active: 45.9 µM
same,AC50,[9],active: 15.1 µM
same,AC50,[3],active: 65.6 µM and active: 38.4 µM
same,AC50,[4],active: 40.1 µM and active: 19.6 µM
same,AC50,[5],active: 63.7 µM and active: 50.3 µM
C=CC(C)(CCC=C(C)C)OC(C)=O (centres undefined),AC50,[1],inconclusive: 78.4 µM
same,AC50,[6],inconclusive: 46.1 µM
same,outcome,[6],inactive
same,AC50,[10],inconclusive: 46.1 µM
same,AC50,[7],inconclusive: 46.1 µM
same,AC50,[8],inconclusive: 46.1 µM and inconclusive: 27 nM
COc1cc([N+](=O)[O-])ccc1N,outcome,[1],inactive
same,outcome,[6],inactive
same,outcome,[9],inactive
same,AC50,[3],inconclusive: 46.1 µM
same,AC50,[4],inconclusive: 80.8 µM
same,AC50,[7],inconclusive: 10.9 µM
same,AC50,[8],inconclusive: 46.1 µM
same,AC50,[5],inconclusive: 46.1 µM
CCCCc1ccc(Cl)cc1,AC50,[1],inconclusive: 92 µM
same,AC50,[2],inconclusive: 186 µM
same,AC50,[6],inconclusive: 24.8 µM
same,AC50,[9],inconclusive: 46.1 µM
same,outcome,[4],inactive
same,AC50,[7],inconclusive: 46.1 µM
same,outcome,[8],inactive
same,outcome,[5],inactive
CC#C[C@]1(O)CC[C@H]2[C@@H]3CCC4=CC(=O)CCC4=C3[C@@H](c3ccc(N(C)C)cc3)C[C@@]21C,AC50,[1],inconclusive: 500 nM and active: 416 nM
same,AC50,[2],inconclusive: 100 µM
same,AC50,[10],active: 45.2 µM and active: 19.9 µM
same,AC50,[3],active: 20.1 µM
same,outcome,[3],inactive
same,outcome,[4],inactive
same,outcome,[8],inactive
same,AC50,[5],active: 65.8 µM and active: 20.7 µM
CC(O)CNCC(C)O (centres undefined),AC50,[1],inconclusive: 0.97 µM
same,outcome,[6],inactive
same,outcome,[10],inactive
same,AC50,[9],inconclusive: 0.989 µM
same,outcome,[3],inactive
same,AC50,[4],inconclusive: 46.1 µM
same,AC50,[7],inconclusive: 46.3 µM
same,AC50,[8],inconclusive: 46.1 µM and inconclusive: 46.3 µM
same,outcome,[5],inactive
Cc1ccc(S(=O)(=O)O)cc1C,outcome,[1],inactive
same,AC50,[6],inconclusive: 45.8 µM and inconclusive: 23 µM
same,AC50,[9],inconclusive: 46.1 µM
same,outcome,[9],inactive
same,AC50,[3],inconclusive: 23 µM
same,outcome,[3],inactive
same,outcome,[4],inactive
same,AC50,[7],inconclusive: 45.8 µM
same,AC50,[8],inconclusive: 46.1 µM and inconclusive: 45.8 µM and inconclusive: 23 µM
same,outcome,[11],inactive
Oc1ccc(-c2ccccc2)c(Cl)c1,AC50,[1],active: 69.5 µM
same,AC50,[2],active: 159 µM
same,outcome,[6],inactive
same,outcome,[9],inactive
same,AC50,[4],active: 60.8 µM
same,AC50,[5],active: 76.2 µM
CC(=O)CC(=O)N(C)C,outcome,[1],inactive
same,AC50,[6],inconclusive: 45.9 µM
same,AC50,[9],inconclusive: 46.1 µM and inconclusive: 45.9 µM
same,AC50,[4],inconclusive: 46.1 µM
same,outcome,[4],inactive
same,AC50,[7],inconclusive: 46.1 µM
same,AC50,[8],inconclusive: 14.2 µM and inconclusive: 45.9 µM

# A run of entries of the results above:
smiles,measurement,setting,value
CC[C@H](c1ccc(O)cc1)[C@@H](CC)c1ccc(O)cc1,outcome,[4],inactive
same,AC50,[7],active: 67.1 µM
same,AC50,[8],active: 75.7 µM
same,AC50,[5],active: 60.1 µM
same,outcome,[5],inactive

# Part of the list above, reformatted:
smiles | measurement | setting | value
Cc1ccccc1Cl | outcome | [9] | inactive
same | AC50 | [3] | inconclusive: 46.1 µM
same | outcome | [3] | inactive
same | AC50 | [8] | inconclusive: 6.19 µM
same | AC50 | [5] | inconclusive: 46.1 µM
CC[C@H](c1ccc(O)cc1)[C@@H](CC)c1ccc(O)cc1 | AC50 | [1] | inconclusive: 50 µM and inconclusive: 16 µM
